Experimental data from patent US12521402B2, “Biomarker and drug combinations for heart failure prediction” (Endothelium Scanning Nanotechnology Limited, priority 2022, dated 2026).

Assay: Saliva proteomics: biomarker quantification by mass spectrometry SWATH in participants at risk of heart failure vs controls
Parameters: species or system human
Conditions: for AtRisk average: 'at risk' of heart failure group mean; for Control average: control group mean
[1] = differential expression (fold) control vs 'at risk' group, saliva
[2] = saliva, mass spectrometry SWATH quantification, 20 samples
[3] = differential expression (fold) control vs 'at risk', printed as larger/smaller average whatever the direction
[4] = saliva, mass spectrometry SWATH quantification
[5] = saliva, mass spectrometry SWATH, 20 samples

| Molecule | Control vs Risk [1] | AtRisk average [2] | Control average [2] | other results |
| --- | --- | --- | --- | --- |
| C1TC (protein, UniProt P11586 1-935, looked up) C-1-tetrahydrofolate …: MAPAEILNGKEISAQIRARLKNQVTQLKEQVPGFTPRLAILQVGNRDDSNLYINVKLKAAEEIGIKATHIKLPRTTTESEVMKYITSLNEDSTVHGFLVQLPLDSENSINTEEVINAIAPEKDVDGLTSINAGKLARGDLNDCFIPCTPKGCLELIKETGVPIAGRHAVVVGRSKIVGAPMHDLLLWNNATVTTCHSKTAHLDEEVNKGDILVVATGQPEMVKGEWIKPGAIVIDCGINYVPDDKKPNGRKVVGDVAYDEAKERASFITPVPGGVGPMTVAMLMQSTVESAKRFLEKFKPGKWMIQYNNLNLKTPVPSDIDISRSCKPKPIGKLAREIGLLSEEVELYGETKAKVLLSALERLKHRPDGKYVVVTGITPTPLGEGKSTTTIGLVQALGAHLYQNVFACVRQPSQGPTFGIKGGAAGGGYSQVIPMEEFNLHLTGDIHAITAANNLVAAAIDARIFHELTQTDKALFNRLVPSVNGVRRFSDIQIRRLKRLGIEKTDPTTLTDEEINRFARLDIDPETITWQRVLDTNDRFLRKITIGQAPTEKGHTRTAQFDISVASEIMAVLALTTSLEDMRERLGKMVVASSKKGEPVSAEDLGVSGALTVLMKDAIKPNLMQTLEGTPVFVHAGPFANIAHGNSSIIADRIALKLVGPEGFVVTEAGFGADIGMEKFFNIKCRYSGLCPHVVVLVATVRALKMHGGGPTVTAGLPLPKAYIQENLELVEKGFSNLKKQIENARMFGIPVVVAVNAFKTDTESELDLISRLSREHGAFDAVKCTHWAEGGKGALALAQAVQRAAQAPSSFQLLYDLKLPVEDKIRIIAQKIYGADDIELLPEAQHKAEVYTKQGFGNLPICMAKTHLSLSHNPEQKGVPTGFILPIRDIRASVGAGFLYPLVGTMSTMPGLPTRPCFYDIDLDPETEQVNGLF | 1.95 | 40,698 ng/ml | 79,459 ng/ml |  |
| CALL5 (protein, UniProt Q9NZT1 2-146, looked up) Calmodulin-like protein 5: AGELTPEEEAQYKKAFSAVDTDGNGTINAQELGAALKATGKNLSEAQLRKLISEVDSDGDGEISFQEFLTAAKKARAGLEDLQVAFRAFDQDGDGHITVDELRRAMAGLGQPLPQEELDAMIREADVDQDGRVNYEEFARMLAQE |  |  |  | Control vs Risk [3]: 6.50; AtRisk average [4]: 1,902,352 ng/ml; Control average [4]: 292,820 ng/ml |
| TBCC (protein, UniProt Q15814 1-346, looked up) Tubulin-specific chaperone C: MESVSCSAAAVRTGDMESQRDLSLVPERLQRREQERQLEVERRKQKRQNQEVEKENSHFFVATFVRERAAVEELLERAESVERLEEAASRLQGLQKLINDSVFFLAAYDLRQGQEALARLQAALAERRRGLQPKKRFAFKTRGKDAASSTKVDAAPGIPPAVESIQDSPLPKKAEGDLGPSWVCGFSNLESQVLEKRASELHQRDVLLTELSNCTVRLYGNPNTLRLTKAHSCKLLCGPVSTSVFLEDCSDCVLAVACQQLRIHSTKDTRIFLQVTSRAIVEDCSGIQFAPYTWSYPEIDKDFESSGLDRSKNNWNDVDDFNWLARDMASPNWSILPEEERNIQWD | 1.95 | 48,145 ng/ml | 93,935 ng/ml |  |
| QCR6 (protein, UniProt P07919 14-91, looked up) Cytochrome b-c1 complex …: GDPEEEEEEEEELVDPLTTVREQCEQLEKCVKARERLELCDERVSSRSHTEEDCTEELFDFLHARDHCVAHKLFNNLK | 1.94 | 214,983 ng/ml | 110,633 ng/ml |  |
| ENY2 (protein, UniProt Q9NPA8 1-101, looked up) Transcription and mRNA export …: MVVSKMNKDAQMRAAINQKLIETGERERLKELLRAKLIECGWKDQLKAHCKEVIKEKGLEHVTVDDLVAEITPKGRALVPDSVKKELLQRIRTFLAQHASL | 1.93 | 55,945 ng/ml | 28,926 ng/ml |  |
| ZA2G (protein, UniProt P25311 21-298, looked up) Zinc-alpha-2-glycoprotein: QENQDGRYSLTYIYTGLSKHVEDVPAFQALGSLNDLQFFRYNSKDRKSQPMGLWRQVEGMEDWKQDSQLQKAREDIFMETLKDIVEYYNDSNGSHVLQGRFGCEIENNRSSGAFWKYYYDGKDYIEFNKEIPAWVPFDPAAQITKQKWEAEPVYVQRAKAYLEEECPATLRKYLKYSKNILDRQDPPSVVVTSHQAPGEKKKLKCLAYDFYPGKIDVHWTRAGEVQEPELRGDVLHNGNGTYQSWVVVAVPPQDTAPYSCHVQHSSLAQPLVVPWEAS | 1.93 | 63,955,674 ng/ml | 33,074,828 ng/ml |  |
| SG1D2 (protein, UniProt O95969 22-90, looked up) Secretoglobin family 1D …: EFCPALVSELLDFFFISEPLFKLSLAKFDAPPEAVAAKLGVKRCTDQMSLQKRSLIAEVLVKILKKCSV |  |  |  | Control vs Risk [3]: 5.22; AtRisk average [4]: 191,255 ng/ml; Control average [4]: 36,661 ng/ml |
| HNRPQ (protein, UniProt O60506 2-623, looked up) Heterogeneous nuclear …: ATEHVNGNGTEEPMDTTSAVIHSENFQTLLDAGLPQKVAEKLDEIYVAGLVAHSDLDERAIEALKEFNEDGALAVLQQFKDSDLSHVQNKSAFLCGVMKTYRQREKQGTKVADSSKGPDEAKIKALLERTGYTLDVTTGQRKYGGPPPDSVYSGQQPSVGTEIFVGKIPRDLFEDELVPLFEKAGPIWDLRLMMDPLTGLNRGYAFVTFCTKEAAQEAVKLYNNHEIRSGKHIGVCISVANNRLFVGSIPKSKTKEQILEEFSKVTEGLTDVILYHQPDDKKKNRGFCFLEYEDHKTAAQARRRLMSGKVKVWGNVGTVEWADPIEDPDPEVMAKVKVLFVRNLANTVTEEILEKAFSQFGKLERVKKLKDYAFIHFDERDGAVKAMEEMNGKDLEGENIEIVFAKPPDQKRKERKAQRQAAKNQMYDDYYYYGPPHMPPPTRGRGRGGRGGYGYPPDYYGYEDYYDYYGYDYHNYRGGYEDPYYGYEDFQVGARGRGGRGARGAAPSRGRGAAPPRGRAGYSQRGGPGSARGVRGARGGAQQQRGRGVRGARGGRGGNVGGKRKADGYNQPDSKRRQTNNQNWGSQPIAQQPLQGGDHSGNYGYKSENQEFYQDTFGQQWK | 1.93 | 413,769 ng/ml | 214,821 ng/ml |  |
| FUT6 (protein, UniProt P51993 1-359, looked up) 4-galactosyl-N-acetylglucosami …: MDPLGPAKPQWSWRCCLTTLLFQLLMAVCFFSYLRVSQDDPTVYPNGSRFPDSTGTPAHSIPLILLWTWPFNKPIALPRCSEMVPGTADCNITADRKVYPQADAVIVHHREVMYNPSAQLPRSPRRQGQRWIWFSMESPSHCWQLKAMDGYFNLTMSYRSDSDIFTPYGWLEPWSGQPAHPPLNLSAKTELVAWAVSNWGPNSARVRYYQSLQAHLKVDVYGRSHKPLPQGTMMETLSRYKFYLAFENSLHPDYITEKLWRNALEAWAVPVVLGPSRSNYERFLPPDAFIHVDDFQSPKDLARYLQELDKDHARYLSYFRWRETLRPRSFSWALAFCKACWKLQEESRYQTRGIAAWFT | 1.92 | 48,948 ng/ml | 93,932 ng/ml |  |
| FBLN3 (protein, UniProt Q12805 18-493, looked up) EGF-containing fibulin-like …: QDTEETITYTQCTDGYEWDPVRQQCKDIDECDIVPDACKGGMKCVNHYGGYLCLPKTAQIIVNNEQPQQETQPAEGTSGATTGVVAASSMATSGVLPGGGFVASAAAVAGPEMQTGRNNFVIRRNPADPQRIPSNPSHRIQCAAGYEQSEHNVCQDIDECTAGTHNCRADQVCINLRGSFACQCPPGYQKRGEQCVDIDECTIPPYCHQRCVNTPGSFYCQCSPGFQLAANNYTCVDINECDASNQCAQQCYNILGSFICQCNQGYELSSDRLNCEDIDECRTSSYLCQYQCVNEPGKFSCMCPQGYQVVRSRTCQDINECETTNECREDEMCWNYHGGFRCYPRNPCQDPYILTPENRCVCPVSNAMCRELPQSIVYKYMSIRSDRSVPSDIFQIQATTIYANTINTFRIKSGNENGEFYLRQTSPVSAMLVLVKSLSGPREHIVDLEMLTVSSIGTFRTSSVLRLTIIVGPFSF | 1.92 | 50,162 ng/ml | 96,101 ng/ml |  |
| TAGL2 (protein, UniProt P37802 2-199, looked up) Transgelin-2: ANRGPAYGLSREVQQKIEKQYDADLEQILIQWITTQCRKDVGRPQPGRENFQNWLKDGTVLCELINALYPEGQAPVKKIQASTMAFKQMEQISQFLQAAERYGINTTDIFQTVDLWEGKNMACVQRTLMNLGGLAVARDDGLFSGDPNWFPKKSKENPRNFSDNQLQEGKNVIGLQMGTNRGASQAGMTGYGMPRQIL | 1.91 | 2,543,935 ng/ml | 1,329,364 ng/ml |  |
| HRG (protein, UniProt P04196 19-525, looked up) Histidine-rich glycoprotein: VSPTDCSAVEPEAEKALDLINKRRRDGYLFQLLRIADAHLDRVENTTVYYLVLDVQESDCSVLSRKYWNDCEPPDSRRPSEIVIGQCKVIATRHSHESQDLRVIDFNCTTSSVSSALANTKDSPVLIDFFEDTERYRKQANKALEKYKEENDDFASFRVDRIERVARVRGGEGTGYFVDFSVRNCPRHHFPRHPNVFGFCRADLFYDVEALDLESPKNLVINCEVFDPQEHENINGVPPHLGHPFHWGGHERSSTTKPPFKPHGSRDHHHPHKPHEHGPPPPPDERDHSHGPPLPQGPPPLLPMSCSSCQHATFGTNGAQRHSHNNNSSDLHPHKHHSHEQHPHGHHPHAHHPHEHDTHRQHPHGHHPHGHHPHGHHPHGHHPHGHHPHCHDFQDYGPCDPPPHNQGHCCHGHGPPPGHLRRRGPGKGPRPFHCRQIGSVYRLPPLRKGEVLPLPEANFPSFPLPHHKHPLKPDNQPFPQSVSESCPGKFKSGFPQVSMFFTHTFPK | 1.90 | 942,991 ng/ml | 497,512 ng/ml |  |
| NAGAB (protein, UniProt P17050 18-411, looked up) Alpha-N-acetylgalactosaminidas …: LDNGLLQTPPMGWLAWERFRCNINCDEDPKNCISEQLFMEMADRMAQDGWRDMGYTYLNIDDCWIGGRDASGRLMPDPKRFPHGIPFLADYVHSLGLKLGIYADMGNFTCMGYPGTTLDKVVQDAQTFAEWKVDMLKLDGCFSTPEERAQGYPKMAAALNATGRPIAFSCSWPAYEGGLPPRVNYSLLADICNLWRNYDDIQDSWWSVLSILNWFVEHQDILQPVAGPGHWNDPDMLLIGNFGLSLEQSRAQMALWTVLAAPLLMSTDLRTISAQNMDILQNPLMIKINQDPLGIQGRRIHKEKSLIEVYMRPLSNKASALVFFSCRTDMPYRYHSSLGQLNFTGSVIYEAQDVYSGDIISGLRDETNFTVIINPSGVVMWYLYPIKNLEMSQQ |  |  |  | Control vs Risk (differential expression (fold) between control and at-risk averages, saliva): 1.89; AtRisk average [5]: 57,000 ng/ml; Control average [5]: 30,226 ng/ml |
